This is one part of the list. Many values rest on one well or one pass, so single values are uncertain.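 The assay uses human stem cell-derived hepatocyte-like cells whose DGUOK gene was disrupted by CRISPR, modeling liver mtDNA depletion syndrome. ATP signals were scored within each plate, and any drug with a score of at least 3 was called a primary hit.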 Starred links: 1 amine or outer side, 2 acyl side, 3 side chain; linkers in the order of their positions; H or OH if unused. Positions of bridges follow the written chain, without caps; N, C: chain ends. Non-standard residues stand in square brackets, D forms with d. Residues, ends and D or L forms follow the SMILES beside them. *: point of attachment. X1 = NC1=N[C@@H]([C@H](N[*:1])C(=O)[*:2])C[C@H](O)N1; ΔAla(Z-3-ureido) = NC(=O)N/C=C(\N)C(=O)O; β3hOrn = NCCC[C@H](N)CC(=O)*; Dap = NC[C@H](N)C(=O)O
test system: DGUOK Δ14/Δ5 iPSC-derived hepatocyte-like cells (SV20); assay: ATP level (CellTiter-Glo luminescence) Z score relative to plate distribution, under 2-DG glycolysis block; higher = more cellular ATP (rescue of mitochondrial ATP production); conditions: 5 µM; treatment time: day 15 to day 20 of differentiation (5 days); 2-deoxy-D-glucose: 20 mM for 24 h before assay

| SMILES | ATP level |
| --- | --- |
| C[n+]1ccccc1/C=N/O | inactive: 1.51 |
| COc1ccc(/C=C/C(=O)c2cc(O)ccc2O)cc1 | inactive: -0.847 |
| CCC(C)n1ncn(-c2ccc(N3CCN(c4ccc(OCC5COC(Cn6cncn6)(c6ccc(Cl)cc6Cl)O5)cc4)CC3)cc2)c1=O (stereo not drawn) | inactive: -18.5 |
| Cc1cccc(Nc2ccccc2C(=O)O)c1C | inactive: 1.86 |
| C=CCSCC=C | inactive: -4.8 |
| C[C@H]1[C@H](OC(=O)CCC(=O)O)O[C@@H]2O[C@@]3(C)CC[C@H]4[C@H](C)CC[C@@H]1[C@@]24OO3 | inactive: -16.2 |
| O=C(Oc1cccc2cccnc12)c1ccccc1 | inactive: 2.16 |
| CN1CCC(OC(c2ccccc2)c2ccccc2)CC1 | inactive: -3.64 |
| COc1cccc(-c2cc(=O)c3ccc(OC)cc3o2)c1 | inactive: -1.63 |
| C[N+](C)(C)CCO.[Cl-] | inactive: -9.09 |
| C/C=C1\[C@H]2C=C(C)C[C@]1(N)c1ccc(=O)[nH]c1C2 | inactive: -2.81 |
| Cc1cc(O)c2c(c1)C(=O)c1cc(O)cc(O)c1C2=O | inactive: 0.884 |
| CN(C/C=C/C#CC(C)(C)C)Cc1cccc2ccccc12 | inactive: 1.19 |
| Fc1ccc([C@@H]2CCNC[C@H]2COc2ccc3c(c2)OCO3)cc1 | inactive: -1.21 |
| Nc1nc(O)c2ncn(CCC(CO)CO)c2n1 | inactive: 0.823 |
| C=C1CCC2C(CC2(C)C)C(=O)CCC1O (stereo not drawn) | inactive: 2.25 |
| NC(CO)C(=O)NNCc1ccc(O)c(O)c1O (stereo not drawn) | inactive: 1.85 |
| C[C@H]1COc2c(N3CCN(C)CC3)c(F)cc3c(=O)c(C(=O)O)cn1c23 | inactive: -1.27 |
| NCCC[C@H](N)CC(=O)N[C@H]1CNC(=O)[C@H]([C@H]2C[C@H](O)NC(N)=N2)NC(=O)/C(=C/NC(N)=O)NC(=O)[C@H](CO)NC(=O)[C@H](CO)NC1=O (β3hOrn-[Dap]SS[ΔAla(Z-3-ureido)][X1]; lactam 1-C) | inactive: 1.02 |
| O=C(NC1CCCCC1)NC1CCCCC1 | inactive: -0.988 |
| COc1ccc2c(c1)OC[C@@H](Cc1ccc(OC)c(OC)c1)[C@H]2O | inactive: 3 |

Some of the entries above, reformatted:
SMILES | ATP level
C[C@H]1COc2c(N3CCN(C)CC3)c(F)cc3c(=O)c(C(=O)O)cn1c23 | inactive: -1.27
NCCC[C@H](N)CC(=O)N[C@H]1CNC(=O)[C@H]([C@H]2C[C@H](O)NC(N)=N2)NC(=O)/C(=C/NC(N)=O)NC(=O)[C@H](CO)NC(=O)[C@H](CO)NC1=O (β3hOrn-[Dap]SS[ΔAla(Z-3-ureido)][X1]; lactam 1-C) | inactive: 1.02

The listing continues.

| SMILES | ATP level |
| --- | --- |
| NCC[C@H](O)C(=O)N[C@@H]1C[C@H](N)[C@@H](O[C@H]2O[C@H](CN)[C@@H](O)[C@H](O)[C@H]2O)[C@H](O)[C@H]1O[C@H]1O[C@H](CO)[C@@H](O)[C@H](N)[C@H]1O | inactive: -0.858 |
| CC(C)=CCOc1cc2oc(=O)ccc2cc1O | inactive: -1.81 |
| O=C(O)CSCC(=O)NC1CCSC1=O (stereo not drawn) | inactive: -1.26 |
| COc1cc(/C=C/C(=O)CC(=O)/C=C/c2ccc(O)c(OC)c2)ccc1O | inactive: 0.0931 |
| Cc1cc2nc3c(=O)[nH]c(=O)nc-3n(CC(O)C(O)C(O)COP(=O)(O)O)c2cc1C (stereo not drawn) | inactive: 0.0746 |
| CC(=O)OCC[N+](C)(C)C | inactive: 0.172 |
| OCCN1C[C@H](O)[C@@H](O)[C@H](O)[C@H]1CO | inactive: 2.93 |
| CC(=O)O[C@H]1C[C@@H](OC(C)=O)C(C)(C)C2CC(=O)[C@]3(C)C(CC[C@@]4(C)[C@H](c5ccoc5)OC(=O)[C@H]5O[C@]543)[C@]21C (stereo partly drawn) | inactive: -1.95 |
| O=C(O)c1nc2cc(Cl)c(Cl)cc2nc1O | inactive: 1.21 |
| Cn1cnc([N+](=O)[O-])c1Sc1ncnc2[nH]cnc12 | inactive: -3.83 |
| CC(C)C(=O)Nc1ccc([N+](=O)[O-])c(C(F)(F)F)c1 | inactive: 1.05 |
| CN(C)[C@@H]1C(=O)C(C(N)=O)=C(O)[C@@]2(O)C(=O)C3=C(O)c4c(O)ccc(Cl)c4[C@@H](O)[C@H]3C[C@@H]12 | inactive: -2.98 |
| O=C(O)CCCC[C@@H]1SC[C@@H]2NC(=O)N[C@@H]21 | inactive: -26.4 |
| CN1CCN(c2cc3c(cc2F)c(=O)c(C(=O)O)cn3-c2ccc(F)cc2)CC1 | inactive: -0.822 |
| CC1COc2c(N3CCN(C)CC3)c(F)cc3c(=O)c(C(=O)O)cn1c23 (stereo not drawn) | inactive: -0.164 |
| C[C@H](CCC(=O)O)[C@H]1CC[C@H]2[C@@H]3CC[C@@H]4C[C@H](O)CC[C@]4(C)[C@H]3CC[C@]12C | active: 3.02 |
| CC(=O)SCC(Cc1ccccc1)C(=O)NCC(=O)OCc1ccccc1 (stereo not drawn) | inactive: -0.513 |
| COC(=O)C1=C(C)NC(C)=C(C(=O)OC(C)C)C1c1cccc2nonc12 (stereo not drawn) | inactive: 0.736 |
| CC(C)(C)NC(=O)[C@H]1CC[C@H]2[C@@H]3CC[C@H]4NC(=O)C=C[C@]4(C)[C@H]3CC[C@]12C | inactive: -7.11 |
| C=CC1=C(C)/C(=C/c2[nH]c(Cc3[nH]c(/C=C4\NC(=O)C(C)=C4C=C)c(C)c3CCC(=O)O)c(CCC(=O)O)c2C)NC1=O | inactive: 2.86 |
| Nc1nc(N)c2nc(-c3ccccc3)c(N)nc2n1 | inactive: 0.605 |

Some of these compounds in order of formula weight, descending.

| SMILES | ATP level |
| --- | --- |
| CN1CCN(c2cc3c(cc2F)c(=O)c(C(=O)O)cn3-c2ccc(F)cc2)CC1 | inactive: -0.822 |
| Nc1nc(N)c2nc(-c3ccccc3)c(N)nc2n1 | inactive: 0.605 |
| CC(=O)OCC[N+](C)(C)C | inactive: 0.172 |

Next records.

| SMILES | ATP level |
| --- | --- |
| C=C1CC[C@H](O)C/C1=C/C=C1\CCC[C@]2(C)[C@@H]([C@H](C)/C=C/[C@H](C)C(C)C)CC[C@@H]12 | inactive: 2.81 |
| C[C@H](CC(=O)[C@@H]1OC1(C)C)[C@H]1C(=O)C[C@@]2(C)C3=CC[C@H]4C(C)(C)[C@@H](O[C@@H]5OC[C@@H](O)[C@H](O)[C@H]5O)CC[C@@]45C[C@@]35[C@@H](O)C[C@]12C | inactive: 0.427 |
| CCCCOc1ccc(C(=O)CCN2CCCCC2)cc1 | inactive: -2.53 |
| COc1cccc(O)c1O | inactive: 2.58 |
| C=C1C(=O)O[C@H]2[C@H]1CC/C(C)=C/CC[C@@]1(C)O[C@@H]21 | inactive: -4.78 |
| CN1[C@@H]2CC[C@H]1C[C@@H](OC(=O)C(O)c1ccccc1)C2 (stereo partly drawn) | inactive: 1.54 |
| Cn1nnc2c(C(N)=O)ncn2c1=O | inactive: 1.07 |
| COc1ccc(CCC(=O)c2c(O)cc(O[C@@H]3O[C@H](CO)[C@@H](O)[C@H](O)[C@H]3O[C@@H]3O[C@@H](C)[C@H](O)[C@@H](O)[C@H]3O)cc2O)cc1O | inactive: 0.381 |
| CC(C)=CCC[C@@H](C)[C@@H]1CC[C@]2(C)C3=C(CC[C@@]12C)[C@@]1(C)CC[C@H](O)C(C)(C)[C@@H]1CC3 | inactive: -0.0807 |
| OC(CCN1CCCC1)(c1ccccc1)C1CCCCC1 (stereo not drawn) | inactive: -4.58 |
| CC(=O)/C(=C\c1ccccc1)CC(=O)O | inactive: 1.6 |
| CC(CN(C)C)CN1c2ccccc2CCc2ccccc21 (stereo not drawn) | inactive: 1.62 |
| C=C(C)[C@@H]1CC[C@]2(C)CC[C@]3(C)[C@H](CC[C@@H]4[C@@]5(C)CC[C@H](OC(C)=O)C(C)(C)[C@@H]5CC[C@]43C)[C@@H]12 | inactive: 2.04 |
| COC(=O)[C@H]1[C@H]2C[C@H]3c4[nH]c5ccccc5c4CCN3C[C@H]2CC[C@@H]1O | inactive: -0.19 |
| CC1=C(/C=C/C(C)=C/C=C/C(C)=C/C=C/C=C(C)/C=C/C=C(C)/C=C/C(=O)[C@]2(C)C[C@@H](O)CC2(C)C)C(C)(C)C[C@H](O)C1 | inactive: 0.874 |
| C[C@H]1[C@H]2CC[C@H]3[C@@H]4CC=C5C[C@@H](N(C)C)CC[C@]5(C)[C@H]4CC[C@]23CN1C | inactive: 0.218 |
| C[N+](C)(C)C[C@H](O)CC(=O)[O-] | inactive: 1.87 |
| COc1ccc(-c2cc(=O)c3c(OC)cc(OC)cc3o2)cc1 | inactive: -2.2 |
| COC(=O)[C@@]1(C)CCC[C@]2(C)c3ccc(O)c(C(C)C)c3CCC12 (stereo partly drawn) | inactive: 2.63 |
| O=C(O)CCCCCCCC(O)C(O)CCCCCCO (stereo not drawn) | inactive: 0.183 |
| CN(Cc1cc(Br)cc(Br)c1N)C1CCCCC1 | active: 5.76 |

| SMILES | ATP level |
| --- | --- |
| C[C@H](CS)C(=O)N1CCC[C@H]1C(=O)O | inactive: 0.999 |
| CC1(C)O[C@@H]2C[C@H]3[C@@H]4C[C@H](F)C5=CC(=O)C=C[C@]5(C)[C@H]4[C@@H](O)C[C@]3(C)[C@]2(C(=O)CO)O1 | active: 3.92 |
| C[C@]12CCC(=O)C=C1CC[C@@H]1[C@@H]2[C@@H](O)C[C@@]2(C)[C@H]1CC[C@]2(O)C(=O)COP(=O)(O)O | inactive: 2.77 |
| CC(=O)OCC(=O)[C@@]1(O)CC[C@H]2[C@@H]3CCC4=CC(=O)C=C[C@]4(C)[C@H]3[C@@H](O)C[C@@]21C | inactive: 2.5 |
| O=C(Cc1ccccc1)NO | inactive: -0.446 |
| CC[C@H](c1ccc(O)cc1)[C@@H](CC)c1ccc(O)cc1 | inactive: 1.62 |
| Cc1c(Nc2ncccc2C(=O)O)cccc1C(F)(F)F | inactive: -0.346 |
| NNC(=O)c1ccncc1 | inactive: 0.764 |
| CC1=CCc2c(cc3oc(C)cc(=O)c3c2O)OC1 | inactive: 1.57 |
| CCC(=O)OCC(=O)[C@@]1(OC(=O)CC)[C@@H](C)C[C@H]2[C@@H]3CCC4=CC(=O)C=C[C@]4(C)[C@@]3(F)[C@@H](O)C[C@@]21C | active: 5.95 |
| CC1(C)O[C@@H]2C[C@H]3[C@@H]4C[C@H](F)C5=CC(=O)CC[C@]5(C)[C@H]4[C@@H](O)C[C@]3(C)[C@]2(C(=O)CO)O1 | active: 3.09 |
| CC1(C)CC2C1CCC1(C)OC1CCC2(C)O (stereo not drawn) | inactive: -2.78 |
| CCCCc1oc2ccccc2c1C(=O)c1cc(I)c(OCCN(CC)CC)c(I)c1 | inactive: 1.27 |
| O=c1[nH]c(=O)n([C@H]2C[C@H](O)[C@@H](CO)O2)cc1I | inactive: 2.15 |
| O=c1cccc2ccc(O)c(O)c2c1O | inactive: -4.16 |
| Cc1cccc(N(C)C(=S)Oc2ccc3ccccc3c2)c1 | inactive: 0.219 |
| N[C@@H](COP(=O)(O)O)C(=O)O | active: 3.29 |
| CCN1CCCC1CNC(=O)c1cc(S(N)(=O)=O)ccc1OC (stereo not drawn) | inactive: 1.37 |
| COc1ccc(-c2ccc3cc(C(=O)O)ccc3c2)cc1C12CC3CC(CC(C3)C1)C2 | inactive: -11.4 |
| O=C(O)c1cc2cc(F)ccc2[nH]1 | inactive: -0.586 |

Gathered by group, the compounds so far with a furan ring, fused or not (two)

| SMILES | ATP level |
| --- | --- |
| CC(=O)O[C@H]1C[C@@H](OC(C)=O)C(C)(C)C2CC(=O)[C@]3(C)C(CC[C@@]4(C)[C@H](c5ccoc5)OC(=O)[C@H]5O[C@]543)[C@]21C (stereo partly drawn) | inactive: -1.95 |
| CCCCc1oc2ccccc2c1C(=O)c1cc(I)c(OCCN(CC)CC)c(I)c1 | inactive: 1.27 |

From the supplement of paper PMC6289059
